Results are given in words; binding and its absence hold for the method and conditions named.

The target in the test is T1, SERK3 cytoplasmic domain (residues 250-615) (A. thaliana) (UniProt Q94F62).
T1 sequence: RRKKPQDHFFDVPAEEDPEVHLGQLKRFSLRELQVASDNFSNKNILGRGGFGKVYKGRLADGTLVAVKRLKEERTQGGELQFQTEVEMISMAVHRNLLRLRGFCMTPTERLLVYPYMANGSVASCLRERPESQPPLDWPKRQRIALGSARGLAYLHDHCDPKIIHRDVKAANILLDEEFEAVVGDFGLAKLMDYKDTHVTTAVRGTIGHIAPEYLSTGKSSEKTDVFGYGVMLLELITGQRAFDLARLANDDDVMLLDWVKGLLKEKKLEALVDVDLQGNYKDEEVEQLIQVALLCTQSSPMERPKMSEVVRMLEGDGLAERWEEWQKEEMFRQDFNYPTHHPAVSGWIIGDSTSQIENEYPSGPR
The test is described as follows: condition: ~200 uM injected into ~20 uM SERK3 kinase domain.

With “BIR2 cytosolic domain (A. thaliana) (domain or fragment)”, the binding entry is given as “no binding”.
